Here are results for 2 molecules from patent US12099068B2, “Biomarkers for graft-versus-host disease” (Incyte Corporation, priority 2018, dated 2024).

For series [1], the system named is plasma proteins. Nature of the series: OLINK proximity extension assay of baseline plasma, CR compared to PD/Death, updated classification, Example 5 (Table 11). As to conditions: itacitinib 200 or 300 mg QD plus corticosteroids, response at day 28. The format is in vivo, human.
Series [2] deals with MCP-3 (CCL7), Reg3A, TNFRSF6B, SCF, CXCL10, IL-8, ST2, CALCA, TNF-R1, IL-6, CCL19, IL-2Ra, and PON3. The note with it: targeted OLINK proximity extension assay; for Protein expression, mean, CR (N = 10) / Protein expression, median, CR (N = 10): Complete Responder group; for Protein expression, mean, PD/Death (N = 7) / Protein expression, median, PD/Death (N = 7): Progressive Disease/Death group.

Series [3] concerns plasma proteins. The series is described as follows: Proteins of Table 11 stably expressed in complete responders between days 1 and 28, Example 5 (Table 12). The format is in vivo, human. The note with it: day 1 vs day 28.

B1: TNFRSF6B (protein, UniProt O95407 30-300, looked up)
Tumor necrosis factor …: VAETPTYPWRDAETGERLVCAQCPPGTFVQRPCRRDSPTTCGPCPPRHYTQFWNYLERCRYCNVLCGEREEEARACHATHNRACRCRTGFFAHAGFCLEHASCPPGAGVIAPGTPSQNTQCQPCPPGTFSASSSSSEQCQPHRNCTALGLALNVPGSSSHDTLCTSCTGFPLSTRVPGAEECERAVIDFVAFQDISIKRLQRLLQALEAPEGWGPTPRAGRAALQLKLRRRLTELLGAQDGALLVRLLQALRVARMPGLERSVRERFLPVH
Take B1: the “Fold Change, Down-Regulated in CR Compared to PD/Death” value in the series on plasma proteins [1] is reported as −2.24. In series [2], the “Protein expression, mean, CR (N = 10)” value was 184.7 pg/mL; the “Protein expression, median, CR (N = 10)” value was 159 pg/mL; the “Protein expression, mean, PD/Death (N = 7)” value was 411.9 pg/mL; the “Protein expression, median, PD/Death (N = 7)” value was 413.6 pg/mL.

B2: PON3 (protein, UniProt Q15166 1-354, looked up)
Serum paraoxonase/lactonase 3: MGKLVALVLLGVGLSLVGEMFLAFRERVNASREVEPVEPENCHLIEELESGSEDIDILPSGLAFISSGLKYPGMPNFAPDEPGKIFLMDLNEQNPRAQALEISGGFDKELFNPHGISIFIDKDNTVYLYVVNHPHMKSTVEIFKFEEQQRSLVYLKTIKHELLKSVNDIVVLGPEQFYATRDHYFTNSLLSFFEMILDLRWTYVLFYSPREVKVVAKGFCSANGITVSADQKYVYVADVAAKNIHIMEKHDNWDLTQLKVIQLGTLVDNLTVDPATGDILAGCHPNPMKLLNYNPEDPPGSEVLRIQNVLSEKPRVSTVYANNGSVLQGTSVASVYHGKILIGTVFHKTLYCEL
As to B2, in the series on plasma proteins [1], the “Fold Change, Up-Regulated in CR Compared to PD/Death” value worked out at 4.8594. Also, the “Fold Change (D1 vs D28), proteins Up-Regulated in CR Compared to PD/Death” value with plasma proteins [3] is 1.3014. Further, in series [2], the “Protein expression, mean, CR (N = 10)” value is 438566 pg/mL; the “Protein expression, median, CR (N = 10)” value was 386584 pg/mL; the “Protein expression, mean, PD/Death (N = 7)” value was 148321 pg/mL; the “Protein expression, median, PD/Death (N = 7)” value is 93702 pg/mL.
